According to article doi:10.1101/2023.09.28.559918:
Read-outs that look alike come from different tables or passages of the source. No constants are given. Whether binding was seen depends on the method and setting. For some assays here: Binding seen in cells or lysates may run through a third protein. Some binding calls cover weakened binding; strength is not graded here. Tags and fused reporters may be left off the sequences shown.

T1: FurA (previously YlaN), Fur antirepressor (bacterial two-hybrid fusion) (Bacillus subtilis) (UniProt O07638)
T1 sequence: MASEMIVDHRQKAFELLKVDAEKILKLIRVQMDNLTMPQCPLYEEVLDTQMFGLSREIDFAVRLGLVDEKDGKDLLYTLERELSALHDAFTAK

T2: FurA-Strep (Bacillus subtilis) (UniProt O07638)
T2 sequence: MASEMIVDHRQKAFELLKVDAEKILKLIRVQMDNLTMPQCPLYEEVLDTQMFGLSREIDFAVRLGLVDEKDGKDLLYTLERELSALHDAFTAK


How the values were obtained:
[1] = target: T1, FurA (previously YlaN), Fur antirepressor (bacterial two-hybrid fusion) (Bacillus subtilis); assay: two-hybrid
[2] = target: T1, FurA (previously YlaN), Fur antirepressor (bacterial two-hybrid fusion) (Bacillus subtilis); assay: two-hybrid; remark: listed apart in the source
[3] = target: T2, FurA-Strep (Bacillus subtilis); assay: co-IP

Binder | binding [1] | binding [2] | binding [3]
Fur, ferric uptake regulator (bacterial two-hybrid fusion) (protein, UniProt P54574 1-149) MENRIDRIKKQLHSSSYKLTPQREATVRVLLENEEDHLSAEDVYLLVKEKSPEIGLATVYRTLELLTELKVVDKINFGDGVSRYDLRKEGAAHFHHHLVCMECGAVDEIEEDLLEDVEEIIERDWKFKIKDHRLTFHGICHRCNGKETE | binds | binds | 
FurA (previously YlaN), Fur antirepressor (bacterial two-hybrid fusion) (protein, UniProt O07638 1-93) MASEMIVDHRQKAFELLKVDAEKILKLIRVQMDNLTMPQCPLYEEVLDTQMFGLSREIDFAVRLGLVDEKDGKDLLYTLERELSALHDAFTAK | binds | binds | 
Fur-FLAG (protein, UniProt P54574 1-149) MENRIDRIKKQLHSSSYKLTPQREATVRVLLENEEDHLSAEDVYLLVKEKSPEIGLATVYRTLELLTELKVVDKINFGDGVSRYDLRKEGAAHFHHHLVCMECGAVDEIEEDLLEDVEEIIERDWKFKIKDHRLTFHGICHRCNGKETE |  |  | binds
